Screen size: about 1,500 compounds; about 430 (29%) were called active. How the calls were made is not given here. The list shows a part of the results, in another mix than the full data. Potency and affinity values are given separately.
Test: glucose-independent GLuc insulin release activation – cell-based, INS-1E, Gaussia luciferase, luminescence, cherry-pick, counter-screen for glucose-dependent insulin secretion activators, dose response (AID 977606);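 further: 0% = median of neutral control wells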
Settings: INS-1E Gaussia luciferase insulin secretion, no glucose; at 35 µM (top of the series)

| Structure (SMILES) | activation |
| --- | --- |
| c1ccc(N2[C@@H]3CC[C@H]2c2ccncc2C3)cc1 | inactive: -3.04% |
| COC(=O)C[C@H]1CC[C@H]2NC[C@@H](O)COC[C@@H]2O1 | inactive: -0.907% |
| CC(C)c1cc(Br)c(NC(=O)Nc2cccnc2)c(Br)c1 | inactive: -9.66% |
| Cc1cccc(CN2CCN(C(=O)Cc3ccccc3)CC2)c1 | inactive: -1.48% |
| CC(=NC(C)c1ccccc1)c1c(O)[nH]c(=O)[nH]c1=O (stereo not drawn) | inactive: 7% |
| O=C(c1cccc2ccccc12)C1CCCN(Cc2ccon2)C1 (stereo not drawn) | inactive: 5.89% |
| CCC(=NC(C)c1ccccc1)c1c(O)[nH]c(=O)[nH]c1=O (stereo not drawn) | inactive: -0.859% |
| CC(C)Nc1nc(Cl)nc(NC(C)C)n1 | inactive: 5.36% |
| COc1ccc(C(=O)C2CCCN(Cc3ccc(C)s3)C2)cc1OC (stereo not drawn) | inactive: -10.2% |
| COc1ccc(CN2CCN(Cc3ccccc3F)CC2)cc1 | inactive: 8.57% |
| Cc1nc2ccccc2c(=O)n1-c1ccc(Cl)c(Cl)c1 | inactive: 3.66% |
| C=CCSc1nc2c(c(-c3ccsc3)c1C#N)CN(C)CC2 | inactive: -3.9% |
| CCNc1nc(Cl)nc(NC(C)C)n1 | inactive: -11.8% |
| Cc1cc(Br)cn2c(CC(=O)N3CCCCC3)c(-c3ccc(F)cc3)nc12 | inactive: -11.5% |
| COc1nc(NC(C)C)nc(NC(C)C)n1 | inactive: -3.46% |
| COc1cc(C(=O)OC2C[C@H]3CC[C@@H](C2)N3C)ccc1O (stereo partly drawn) | inactive: -12.3% |
| Cc1[nH]c2ccccc2c1CCNCc1cccnc1 | inactive: -6.49% |
| C=C(C)Cn1c(=O)n(CC2CS2)c2ccccc21 (stereo not drawn) | inactive: 17.1% |

A second format for part of the listing above.
Structure (SMILES) | activation
COc1ccc(CN2CCN(Cc3ccccc3F)CC2)cc1 | inactive: 8.57%
Cc1[nH]c2ccccc2c1CCNCc1cccnc1 | inactive: -6.49%
